Source: article PMC6572064, “Discovery of 2-(1-(3-(4-Chloroxyphenyl)-3-oxo- propyl)pyrrolidine-3-yl)-1H-benzo[d]imidazole-4-carboxamide: A Potent Poly(ADP-ribose) Polymerase (PARP) Inhibitor for Treatment of Cancer” (Molecules, 2019)

Test system: CAPAN-1 (a BRCA-2-mutated pancreatic cancer cell line)
Experiment: Cell proliferation assay, three-day, CellTiter-Glo, CAPAN-1
Type: cell-based
Settings: for Inh % 1: replicate 1; for Inh % 2: replicate 2
Description: A three-day assay was conducted. A cell suspension was prepared. Cell density was counted by an automated cell counter and then diluted to the required density, according to seeding density. 50 μL cells were seeded into 384-well plate in growth medium according to the plate map. The cells were incubated at 37 °C, 5% CO2 overnight.
200× compound solution in DMSO was prepared and diluted with growth medium to 26× final concentration by addition of 26 μL 200× compounds to 174 μL growth medium. Then 2 μL of diluted compound solution was added to cells and the cell was incubated at 37 °C, 5% CO2 for 72 h.
The assay plate was equilibrated to room temperature prior to measurement. 15 μL of CellTiter-Glo Reagent was added into each well and the contents were mixed for 2 min on an orbital shaker to induce cell lysis. The cells were incubated at room temperature for 60 min to stabilize luminescent signal. Luminescence was recorded on the Envision system.

CN[C@@H]1C[C@H]2O[C@@](C)([C@@H]1OC)n1c3ccccc3c3c4c(c5c6ccccc6n2c5c31)C(=O)NC4 [STS, reference compound]
Inh % 1 (CAPAN-1, Conc. 0.000254 uM): 10.9% | Inh % 2 (CAPAN-1, Conc. 0.000254 uM): 3.2% | Inh % 1 (CAPAN-1, Conc. 0.000762 uM): 12.8% | Inh % 2 (CAPAN-1, Conc. 0.000762 uM): 15.5% | Inh % 2 (CAPAN-1, Conc. 0.00229 uM): 26.4% | Inh % 1 (CAPAN-1, Conc. 0.00686 uM): 27.0% | Inh % 2 (CAPAN-1, Conc. 0.00686 uM): 38.5% | Inh % 1 (CAPAN-1, Conc. 0.02 uM): 36.6% | Inh % 2 (CAPAN-1, Conc. 0.02 uM): 34.5% | Inh % 1 (CAPAN-1, Conc. 0.06 uM): 54.1% | Inh % 2 (CAPAN-1, Conc. 0.06 uM): 48.7% | Inh % 1 (CAPAN-1, Conc. 0.19 uM): 73.5% | Inh % 2 (CAPAN-1, Conc. 0.19 uM): 73.7% | Inh % 1 (CAPAN-1, Conc. 0.56 uM): 90.1% | Inh % 2 (CAPAN-1, Conc. 0.56 uM): 89.3% | Inh % 1 (CAPAN-1, Conc. 1.67 uM): 93.3% | Inh % 2 (CAPAN-1, Conc. 1.67 uM): 93.5% | Inh % 1 (CAPAN-1, Conc. 5.00 uM): 95.9% | Inh % 2 (CAPAN-1, Conc. 5.00 uM): 96.2% | LogIC50 (CAPAN-1, curve fit, plate 1): -1.189 Log (uM)
